Test results as given in the supplement of paper PMC10032668.
± gives the standard deviation of the averaged measurements. The list shows a part of the results. Only hits are listed; about a third recur on repeated control peptides.

By UniProt entry, the sequences of proteins in these tests, tags left out.
DYNLL1, P63167, UniProt P63167, whole entry: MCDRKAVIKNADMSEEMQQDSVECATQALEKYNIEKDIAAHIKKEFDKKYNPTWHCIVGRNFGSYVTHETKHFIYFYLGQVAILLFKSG
MORF4L2, Q15014, UniProt Q15014, whole entry: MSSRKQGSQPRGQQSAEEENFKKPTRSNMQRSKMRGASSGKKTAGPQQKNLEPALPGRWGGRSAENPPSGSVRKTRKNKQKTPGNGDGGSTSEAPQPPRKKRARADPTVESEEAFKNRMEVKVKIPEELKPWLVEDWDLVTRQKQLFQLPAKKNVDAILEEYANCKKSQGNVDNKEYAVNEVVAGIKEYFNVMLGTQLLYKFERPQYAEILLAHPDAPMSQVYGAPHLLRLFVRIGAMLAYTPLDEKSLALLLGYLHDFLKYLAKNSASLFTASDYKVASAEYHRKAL
MPG, P29372, UniProt P29372, whole entry: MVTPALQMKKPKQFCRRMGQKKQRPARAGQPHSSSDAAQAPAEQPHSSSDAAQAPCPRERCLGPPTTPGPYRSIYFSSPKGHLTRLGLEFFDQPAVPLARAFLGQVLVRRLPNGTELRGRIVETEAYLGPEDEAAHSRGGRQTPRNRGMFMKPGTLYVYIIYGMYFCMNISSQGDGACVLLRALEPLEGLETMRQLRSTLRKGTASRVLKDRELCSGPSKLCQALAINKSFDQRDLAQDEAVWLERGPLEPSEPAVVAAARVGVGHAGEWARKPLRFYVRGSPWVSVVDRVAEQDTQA
NFRKB, Q6P4R8, UniProt Q6P4R8, whole entry: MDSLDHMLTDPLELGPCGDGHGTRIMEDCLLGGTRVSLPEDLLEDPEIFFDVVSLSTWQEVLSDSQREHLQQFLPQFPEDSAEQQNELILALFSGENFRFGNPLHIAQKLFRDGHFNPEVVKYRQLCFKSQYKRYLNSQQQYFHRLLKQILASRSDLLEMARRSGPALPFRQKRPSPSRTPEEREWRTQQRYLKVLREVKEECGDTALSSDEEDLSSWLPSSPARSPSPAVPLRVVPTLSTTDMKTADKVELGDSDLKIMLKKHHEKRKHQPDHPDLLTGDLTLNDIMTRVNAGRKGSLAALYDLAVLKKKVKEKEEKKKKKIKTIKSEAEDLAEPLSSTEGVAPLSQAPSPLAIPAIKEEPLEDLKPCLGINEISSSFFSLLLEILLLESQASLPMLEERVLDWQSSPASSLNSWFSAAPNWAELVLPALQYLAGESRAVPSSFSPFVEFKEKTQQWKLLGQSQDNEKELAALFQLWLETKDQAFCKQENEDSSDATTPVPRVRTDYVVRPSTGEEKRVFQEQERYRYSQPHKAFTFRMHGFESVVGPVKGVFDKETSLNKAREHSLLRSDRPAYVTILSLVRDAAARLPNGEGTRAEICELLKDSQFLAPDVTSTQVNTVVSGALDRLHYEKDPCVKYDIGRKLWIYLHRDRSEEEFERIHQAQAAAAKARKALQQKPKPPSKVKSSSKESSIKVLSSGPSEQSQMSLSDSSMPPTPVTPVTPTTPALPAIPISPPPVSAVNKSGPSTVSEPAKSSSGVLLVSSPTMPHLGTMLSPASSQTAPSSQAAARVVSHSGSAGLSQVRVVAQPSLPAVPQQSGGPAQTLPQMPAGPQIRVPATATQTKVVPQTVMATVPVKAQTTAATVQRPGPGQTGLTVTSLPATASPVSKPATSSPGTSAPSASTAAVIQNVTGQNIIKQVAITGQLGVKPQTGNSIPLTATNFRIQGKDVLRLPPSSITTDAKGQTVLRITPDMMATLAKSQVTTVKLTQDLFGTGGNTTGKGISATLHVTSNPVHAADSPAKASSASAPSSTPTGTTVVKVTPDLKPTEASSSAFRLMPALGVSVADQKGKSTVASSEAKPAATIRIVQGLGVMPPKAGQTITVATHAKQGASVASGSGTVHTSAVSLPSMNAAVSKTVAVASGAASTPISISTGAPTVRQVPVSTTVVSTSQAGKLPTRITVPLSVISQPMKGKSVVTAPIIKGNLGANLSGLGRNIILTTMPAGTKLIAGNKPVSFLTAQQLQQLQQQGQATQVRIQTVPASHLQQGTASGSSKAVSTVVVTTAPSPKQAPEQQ
YBX1, P67809, UniProt P67809, whole entry: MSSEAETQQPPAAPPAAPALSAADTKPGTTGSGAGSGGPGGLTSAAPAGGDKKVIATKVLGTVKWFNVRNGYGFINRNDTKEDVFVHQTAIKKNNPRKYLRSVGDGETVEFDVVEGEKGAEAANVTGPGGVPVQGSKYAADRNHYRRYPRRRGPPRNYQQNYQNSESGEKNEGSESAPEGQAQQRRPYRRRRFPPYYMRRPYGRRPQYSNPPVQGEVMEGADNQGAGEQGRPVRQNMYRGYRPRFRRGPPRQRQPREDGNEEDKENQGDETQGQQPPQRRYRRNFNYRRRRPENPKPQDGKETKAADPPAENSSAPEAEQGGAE
YBX3, P16989, UniProt P16989, whole entry: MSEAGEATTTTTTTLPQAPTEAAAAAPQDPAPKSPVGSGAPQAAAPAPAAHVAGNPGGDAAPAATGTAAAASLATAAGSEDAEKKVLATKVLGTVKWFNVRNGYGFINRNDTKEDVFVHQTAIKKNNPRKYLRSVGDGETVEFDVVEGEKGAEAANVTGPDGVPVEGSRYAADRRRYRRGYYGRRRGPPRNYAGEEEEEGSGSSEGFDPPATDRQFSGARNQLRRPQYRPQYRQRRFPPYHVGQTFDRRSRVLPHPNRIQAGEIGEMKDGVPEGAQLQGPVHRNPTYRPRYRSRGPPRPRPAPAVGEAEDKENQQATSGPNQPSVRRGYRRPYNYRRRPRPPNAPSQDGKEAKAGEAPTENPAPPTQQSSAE
ANAPC1, Q9H1A4, UniProt Q9H1A4, whole entry: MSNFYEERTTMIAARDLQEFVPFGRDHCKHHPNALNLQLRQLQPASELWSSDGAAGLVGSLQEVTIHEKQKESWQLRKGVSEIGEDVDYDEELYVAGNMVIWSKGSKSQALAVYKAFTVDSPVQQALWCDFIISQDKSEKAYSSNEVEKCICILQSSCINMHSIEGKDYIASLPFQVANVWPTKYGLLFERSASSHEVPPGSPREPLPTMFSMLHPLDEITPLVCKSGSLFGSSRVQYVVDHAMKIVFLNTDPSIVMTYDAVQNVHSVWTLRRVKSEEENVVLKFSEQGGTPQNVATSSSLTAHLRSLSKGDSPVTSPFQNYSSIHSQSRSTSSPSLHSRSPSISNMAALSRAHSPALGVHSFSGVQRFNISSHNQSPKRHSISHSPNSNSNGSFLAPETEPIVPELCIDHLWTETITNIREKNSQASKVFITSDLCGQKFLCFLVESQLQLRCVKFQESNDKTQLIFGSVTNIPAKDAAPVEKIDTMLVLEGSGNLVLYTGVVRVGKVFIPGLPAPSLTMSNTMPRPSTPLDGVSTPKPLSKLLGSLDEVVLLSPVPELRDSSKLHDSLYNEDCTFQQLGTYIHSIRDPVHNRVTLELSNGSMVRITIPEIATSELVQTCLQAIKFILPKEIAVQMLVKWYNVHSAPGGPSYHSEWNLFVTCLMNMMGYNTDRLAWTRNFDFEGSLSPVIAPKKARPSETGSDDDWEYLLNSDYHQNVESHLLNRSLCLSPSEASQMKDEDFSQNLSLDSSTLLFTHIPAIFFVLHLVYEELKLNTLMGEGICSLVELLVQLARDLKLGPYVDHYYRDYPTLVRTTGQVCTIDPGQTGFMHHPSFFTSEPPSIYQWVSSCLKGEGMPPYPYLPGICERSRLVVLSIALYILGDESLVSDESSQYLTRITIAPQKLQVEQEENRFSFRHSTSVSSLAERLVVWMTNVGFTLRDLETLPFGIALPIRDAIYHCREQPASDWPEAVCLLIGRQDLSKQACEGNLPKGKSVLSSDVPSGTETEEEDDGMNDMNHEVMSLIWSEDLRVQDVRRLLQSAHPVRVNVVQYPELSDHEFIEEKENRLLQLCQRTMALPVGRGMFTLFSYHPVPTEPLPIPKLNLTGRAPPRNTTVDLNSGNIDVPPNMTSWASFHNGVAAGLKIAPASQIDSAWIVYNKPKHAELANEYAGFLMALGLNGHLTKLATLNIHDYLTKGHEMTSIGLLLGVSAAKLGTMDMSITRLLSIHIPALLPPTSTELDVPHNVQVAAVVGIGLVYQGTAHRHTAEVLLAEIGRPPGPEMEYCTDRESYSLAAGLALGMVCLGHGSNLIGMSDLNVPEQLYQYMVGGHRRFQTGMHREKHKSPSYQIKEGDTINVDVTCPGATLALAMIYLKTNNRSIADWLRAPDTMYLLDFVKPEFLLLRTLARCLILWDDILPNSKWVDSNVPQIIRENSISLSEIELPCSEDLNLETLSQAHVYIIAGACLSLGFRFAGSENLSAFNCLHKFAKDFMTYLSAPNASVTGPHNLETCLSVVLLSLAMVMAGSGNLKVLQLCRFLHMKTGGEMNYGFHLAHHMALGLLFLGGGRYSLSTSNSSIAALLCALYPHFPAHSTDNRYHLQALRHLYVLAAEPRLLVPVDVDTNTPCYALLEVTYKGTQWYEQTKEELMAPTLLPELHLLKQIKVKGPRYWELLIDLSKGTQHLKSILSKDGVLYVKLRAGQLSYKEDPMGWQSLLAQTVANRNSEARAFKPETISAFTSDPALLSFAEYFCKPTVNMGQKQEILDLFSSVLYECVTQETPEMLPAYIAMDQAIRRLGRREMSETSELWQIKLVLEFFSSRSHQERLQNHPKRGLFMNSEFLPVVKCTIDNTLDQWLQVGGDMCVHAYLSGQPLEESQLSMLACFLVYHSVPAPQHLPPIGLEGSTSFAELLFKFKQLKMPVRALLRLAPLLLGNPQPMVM
ANAPC4, Q9UJX5, UniProt Q9UJX5, whole entry: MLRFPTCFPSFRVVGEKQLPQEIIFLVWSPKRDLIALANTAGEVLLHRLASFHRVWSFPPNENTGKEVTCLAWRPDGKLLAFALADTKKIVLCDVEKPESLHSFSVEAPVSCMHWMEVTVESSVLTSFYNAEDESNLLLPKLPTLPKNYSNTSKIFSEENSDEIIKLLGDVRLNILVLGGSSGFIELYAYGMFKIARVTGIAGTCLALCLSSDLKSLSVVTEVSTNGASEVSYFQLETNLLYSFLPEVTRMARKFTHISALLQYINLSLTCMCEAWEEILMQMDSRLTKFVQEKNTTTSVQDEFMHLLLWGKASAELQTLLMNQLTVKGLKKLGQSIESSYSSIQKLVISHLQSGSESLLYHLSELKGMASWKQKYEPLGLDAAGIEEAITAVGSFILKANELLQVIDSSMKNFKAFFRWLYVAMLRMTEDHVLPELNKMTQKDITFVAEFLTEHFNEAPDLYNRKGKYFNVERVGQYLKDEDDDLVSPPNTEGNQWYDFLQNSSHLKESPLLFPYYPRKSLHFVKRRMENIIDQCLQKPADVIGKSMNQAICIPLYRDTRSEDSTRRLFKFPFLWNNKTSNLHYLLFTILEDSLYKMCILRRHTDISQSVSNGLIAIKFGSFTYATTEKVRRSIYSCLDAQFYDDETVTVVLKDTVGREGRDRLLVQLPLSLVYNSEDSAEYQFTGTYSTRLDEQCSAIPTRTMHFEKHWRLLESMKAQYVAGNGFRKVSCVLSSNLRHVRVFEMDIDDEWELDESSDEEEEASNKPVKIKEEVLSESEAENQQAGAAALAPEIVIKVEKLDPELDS
LIG1, P18858, UniProt P18858, whole entry: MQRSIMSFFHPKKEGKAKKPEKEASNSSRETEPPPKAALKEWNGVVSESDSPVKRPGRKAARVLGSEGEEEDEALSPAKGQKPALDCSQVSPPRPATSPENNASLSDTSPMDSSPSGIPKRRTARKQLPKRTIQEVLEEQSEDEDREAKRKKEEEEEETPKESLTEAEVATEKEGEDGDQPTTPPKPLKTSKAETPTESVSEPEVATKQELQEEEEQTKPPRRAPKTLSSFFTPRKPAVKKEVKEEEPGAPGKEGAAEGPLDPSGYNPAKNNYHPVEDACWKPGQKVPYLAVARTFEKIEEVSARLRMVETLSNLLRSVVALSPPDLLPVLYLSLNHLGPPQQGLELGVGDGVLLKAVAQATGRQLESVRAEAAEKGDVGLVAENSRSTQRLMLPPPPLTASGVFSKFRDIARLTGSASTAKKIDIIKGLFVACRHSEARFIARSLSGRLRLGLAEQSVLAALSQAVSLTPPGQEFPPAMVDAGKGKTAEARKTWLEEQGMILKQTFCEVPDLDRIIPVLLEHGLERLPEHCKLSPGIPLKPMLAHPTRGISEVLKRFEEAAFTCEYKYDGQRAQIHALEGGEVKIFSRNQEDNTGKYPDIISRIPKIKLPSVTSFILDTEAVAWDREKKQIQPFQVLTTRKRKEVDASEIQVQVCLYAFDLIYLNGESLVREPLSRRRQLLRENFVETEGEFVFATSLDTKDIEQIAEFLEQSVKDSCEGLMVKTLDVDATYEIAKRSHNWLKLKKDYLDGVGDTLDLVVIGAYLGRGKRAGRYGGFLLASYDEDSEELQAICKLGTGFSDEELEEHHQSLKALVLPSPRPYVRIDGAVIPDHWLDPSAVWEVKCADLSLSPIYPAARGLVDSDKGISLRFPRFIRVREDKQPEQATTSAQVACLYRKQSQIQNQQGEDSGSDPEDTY

Key:
Experiment in all cases: PRISMA enrichment of interactor (LFQ) in peptide spot vs all other peptide spots (log2 fold change); higher = stronger / more specific binding of the interactor to the peptide
ALYREF, Q86V81 = target: ALYREF, Q86V81
Protocol: (§1)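 PRISMA: 221 full-length sORF-encoded peptides (3-15 aa), plus SOS1/GLUT1 control peptides, were spot-synthesized on cellulose membranes in triplicate. Membranes were incubated with HEK293T lysate, and bound proteins were identified by LC-MS/MS with LFQ. Enrichment is the log2 fold change versus all other peptide spots; only significant interactors are listed (cutoff c=6, x0=2.8).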

BUD23, O43709 = target: BUD23, O43709
Protocol: as §1

C11orf98, E9PRG8 = target: C11orf98, E9PRG8
Protocol: as §1

C19orf53, Q9UNZ5 = target: C19orf53, Q9UNZ5
Protocol: as §1

CBX4, O00257 = target: CBX4, O00257
Protocol: as §1

CCDC137, Q6PK04 = target: CCDC137, Q6PK04
Protocol: as §1

CCDC59, Q9P031 = target: CCDC59, Q9P031
Protocol: as §1

CFAP20, Q9Y6A4 = target: CFAP20, Q9Y6A4
Protocol: as §1

CSNK1E, P49674 = target: CSNK1E, P49674
Protocol: as §1

DIMT1, Q9UNQ2 = target: DIMT1, Q9UNQ2
Protocol: as §1

DNAJA3, Q96EY1 = target: DNAJA3, Q96EY1
Protocol: as §1

DYNLL1, P63167 = target: DYNLL1, P63167
Protocol: as §1

EMG1, Q92979 = target: EMG1, Q92979
Protocol: as §1

FYTTD1, Q96QD9 = target: FYTTD1, Q96QD9
Protocol: as §1

LSM14B, Q9BX40 = target: LSM14B, Q9BX40
Protocol: as §1

MAP7, Q14244 = target: MAP7, Q14244
Protocol: as §1

MAP7D1, Q3KQU3 = target: MAP7D1, Q3KQU3
Protocol: as §1

MAZ, P56270 = target: MAZ, P56270
Protocol: as §1

MORF4L2, Q15014 = target: MORF4L2, Q15014
Protocol: as §1

MPG, P29372 = target: MPG, P29372
Protocol: as §1

NFRKB, Q6P4R8 = target: NFRKB, Q6P4R8
Protocol: as §1

NIFK, Q9BYG3 = target: NIFK, Q9BYG3
Protocol: as §1

NOL10, Q9BSC4 = target: NOL10, Q9BSC4
Protocol: as §1

NOL12, Q9UGY1 = target: NOL12, Q9UGY1
Protocol: as §1

NOP53, Q9NZM5 = target: NOP53, Q9NZM5
Protocol: as §1

NTHL1, P78549 = target: NTHL1, P78549
Protocol: as §1

NUDT16L1, Q9BRJ7 = target: NUDT16L1, Q9BRJ7
Protocol: as §1

NUSAP1, Q9BXS6 = target: NUSAP1, Q9BXS6
Protocol: as §1

NXF1, Q9UBU9 = target: NXF1, Q9UBU9
Protocol: as §1

POLDIP2, Q9Y2S7 = target: POLDIP2, Q9Y2S7
Protocol: as §1

PRR3, P79522 = target: PRR3, P79522
Protocol: as §1

PRRC2A, P48634 = target: PRRC2A, P48634
Protocol: as §1

PRRC2C, Q9Y520 = target: PRRC2C, Q9Y520
Protocol: as §1

PSRC1, Q6PGN9 = target: PSRC1, Q6PGN9
Protocol: as §1

PTRH1, Q86Y79 = target: PTRH1, Q86Y79
Protocol: as §1

RAB34 = target: RAB34
Protocol: as §1

RBMX, P38159 = target: RBMX, P38159
Protocol: as §1

RPUSD3, Q6P087 = target: RPUSD3, Q6P087
Protocol: as §1

SURF6, O75683 = target: SURF6, O75683
Protocol: as §1

UTP3, Q9NQZ2 = target: UTP3, Q9NQZ2
Protocol: as §1

WDR46, O15213 = target: WDR46, O15213
Protocol: as §1

YBX1, P67809 = target: YBX1, P67809
Protocol: as §1

YBX3, P16989 = target: YBX3, P16989
Protocol: as §1

ZNF22, P17026 = target: ZNF22, P17026
Protocol: as §1

ZNF512, Q96ME7 = target: ZNF512, Q96ME7
Protocol: as §1

ZNF593, O00488 = target: ZNF593, O00488
Protocol: as §1

ZNF622, Q969S3 = target: ZNF622, Q969S3
Protocol: as §1

ZNF768, Q9H5H4 = target: ZNF768, Q9H5H4
Protocol: as §1

ANAPC1, Q9H1A4 = target: ANAPC1, Q9H1A4
Protocol: as §1

LAMB3, Q13751 = target: LAMB3, Q13751
Protocol: as §1

MAP2K7, O14733 = target: MAP2K7, O14733
Protocol: as §1

PDCD6IP, Q8WUM4 = target: PDCD6IP, Q8WUM4
Protocol: as §1

PSMD4, P55036 = target: PSMD4, P55036
Protocol: as §1

UQCRFS1, P47985 = target: UQCRFS1, P47985
Protocol: as §1

WDR6, Q9NNW5 = target: WDR6, Q9NNW5
Protocol: as §1

ZC2HC1A, Q96GY0 = target: ZC2HC1A, Q96GY0
Protocol: as §1

ANAPC4, Q9UJX5 = target: ANAPC4, Q9UJX5
Protocol: as §1

CASC1, Q6TDU7 = target: CASC1, Q6TDU7
Protocol: as §1

LIG1, P18858 = target: LIG1, P18858
Protocol: as §1

SNRNP40, Q96DI7 = target: SNRNP40, Q96DI7
Protocol: as §1

B1: AC093642.6 (peptide)
chain: MGPSSGFLDVQLQA
PRISMA enrichment of interactor (log2) (ALYREF, Q86V81): 5.24 ± 1.1
PRISMA enrichment of interactor (log2) (BUD23, O43709): 4.31
PRISMA enrichment of interactor (log2) (C11orf98, E9PRG8): 5.16
PRISMA enrichment of interactor (log2) (C19orf53, Q9UNZ5): 7.72
PRISMA enrichment of interactor (log2) (CBX4, O00257): 4.73
PRISMA enrichment of interactor (log2) (CCDC137, Q6PK04): 7.48
PRISMA enrichment of interactor (log2) (CCDC59, Q9P031): 6.65
PRISMA enrichment of interactor (log2) (CFAP20, Q9Y6A4): 4.84
PRISMA enrichment of interactor (log2) (CSNK1E, P49674): 7.02
PRISMA enrichment of interactor (log2) (DIMT1, Q9UNQ2): 5.87
PRISMA enrichment of interactor (log2) (DNAJA3, Q96EY1): 6.05
PRISMA enrichment of interactor (log2) (DYNLL1, P63167): 4.88
PRISMA enrichment of interactor (log2) (EMG1, Q92979): 7.29
PRISMA enrichment of interactor (log2) (FYTTD1, Q96QD9): 5.21
PRISMA enrichment of interactor (log2) (LSM14B, Q9BX40): 4.54
PRISMA enrichment of interactor (log2) (MAP7, Q14244): 5.23
PRISMA enrichment of interactor (log2) (MAP7D1, Q3KQU3): 4.39
PRISMA enrichment of interactor (log2) (MAZ, P56270): 5.85 ± 1.9
PRISMA enrichment of interactor (log2) (MORF4L2, Q15014): 7.64
PRISMA enrichment of interactor (log2) (MPG, P29372): 5.64
PRISMA enrichment of interactor (log2) (NFRKB, Q6P4R8): 6.96
PRISMA enrichment of interactor (log2) (NIFK, Q9BYG3): 5.88
PRISMA enrichment of interactor (log2) (NOL10, Q9BSC4): 5.61
PRISMA enrichment of interactor (log2) (NOL12, Q9UGY1): 6.84
PRISMA enrichment of interactor (log2) (NOP53, Q9NZM5): 4.88
PRISMA enrichment of interactor (log2) (NTHL1, P78549): 4.81
PRISMA enrichment of interactor (log2) (NUDT16L1, Q9BRJ7): 4.96
PRISMA enrichment of interactor (log2) (NUSAP1, Q9BXS6): 6.68
PRISMA enrichment of interactor (log2) (NXF1, Q9UBU9): 8.59
PRISMA enrichment of interactor (log2) (POLDIP2, Q9Y2S7): 6.55
PRISMA enrichment of interactor (log2) (PRR3, P79522): 3.8
PRISMA enrichment of interactor (log2) (PRRC2A, P48634): 5.31
PRISMA enrichment of interactor (log2) (PRRC2C, Q9Y520): 4.81
PRISMA enrichment of interactor (log2) (PSRC1, Q6PGN9): 6.86
PRISMA enrichment of interactor (log2) (PTRH1, Q86Y79): 3.7
PRISMA enrichment of interactor (log2) (RAB34): 4.62
PRISMA enrichment of interactor (log2) (RBMX, P38159): 5.2
PRISMA enrichment of interactor (log2) (RPUSD3, Q6P087): 5.13
PRISMA enrichment of interactor (log2) (SURF6, O75683): 4.73
PRISMA enrichment of interactor (log2) (UTP3, Q9NQZ2): 4.45
PRISMA enrichment of interactor (log2) (WDR46, O15213): 4.12
PRISMA enrichment of interactor (log2) (YBX1, P67809): 4.92
PRISMA enrichment of interactor (log2) (YBX3, P16989): 5.78
PRISMA enrichment of interactor (log2) (ZNF22, P17026): 5.25
PRISMA enrichment of interactor (log2) (ZNF512, Q96ME7): 5.65
PRISMA enrichment of interactor (log2) (ZNF593, O00488): 4.75
PRISMA enrichment of interactor (log2) (ZNF622, Q969S3): 6.11
PRISMA enrichment of interactor (log2) (ZNF768, Q9H5H4): 6.43

B2: BTN3A3 (peptide)
chain: MRDSTIIERMENY
PRISMA enrichment of interactor (log2) (ANAPC1, Q9H1A4): 6.57
PRISMA enrichment of interactor (log2) (LAMB3, Q13751): 6.65
PRISMA enrichment of interactor (log2) (MAP2K7, O14733): 8.49
PRISMA enrichment of interactor (log2) (PDCD6IP, Q8WUM4): 7.45
PRISMA enrichment of interactor (log2) (PSMD4, P55036): 7.09
PRISMA enrichment of interactor (log2) (UQCRFS1, P47985): 5.53
PRISMA enrichment of interactor (log2) (WDR6, Q9NNW5): 6.06
PRISMA enrichment of interactor (log2) (ZC2HC1A, Q96GY0): 5.8

B3: AP5M1 (peptide)
chain: MRNFDPCGPPFRK
PRISMA enrichment of interactor (log2) (ANAPC4, Q9UJX5): 4.27
PRISMA enrichment of interactor (log2) (CASC1, Q6TDU7): 4.78
PRISMA enrichment of interactor (log2) (LIG1, P18858): 4.04
PRISMA enrichment of interactor (log2) (SNRNP40, Q96DI7): 4.58
